In all, about 350,000 compounds went through this assay and about 6,000 (1.7%) were called active. The inconclusive results got no clear call from the source; some entries with a clear call stand among them for comparison. No stated cut-off is given here; in the data, active means CPE inhibition above about 20% (passing the limit was not always enough); inconclusive means no clear call, values can overlap the other calls; tested in BHK-21 cells. The source holds several records for some structures; these can differ, active in one and inactive in another.
Assay: protection of cells from dengue 2 killing – plate reader, single concentration, primary screen (AID 651640);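 further: 0% = median of neutral control wells and 100% = median of positive control wells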
Details: DENV2-infected cells, cytopathic effect rescue, at 9.99 µM, active compounds read high

SMILES | CPE inhibition
C[C@@H]1CCCCO[C@@H](CN(C)C(=O)c2ccccc2)[C@H](C)CN([C@@H](C)CO)C(=O)c2cc(NS(=O)(=O)c3ccccc3)ccc2O1 | inactive: 2.48%
O=C(Nc1ccc(CN2CCS(=O)(=O)CC2)cc1)c1ccc(C(F)(F)F)cc1 | inactive: 12.2%
Cc1cc(NN=Cc2ccccn2)nc2ccccc12 | inactive: 16%
Cc1cccc(OC(C)C(=O)Nc2nc(-c3ccncc3)cs2)c1 (stereo not given) | active: 106%
Cc1cccc(SC2CCN(C(=O)C3CCC(=O)N(C4CC4)C3)CC2)c1 (stereo not given) | inconclusive: 37%
CCCCc1ccc(NC(=O)NCc2cccnc2)cc1 | inconclusive: 51.2%
CCCNC(=O)C[C@H]1CC[C@@H]2[C@@H](COc3ccc(NC(=O)c4cccc(F)c4)cc3C(=O)N2C)O1 | inconclusive: 36.2%
C[C@H](CO)N1C[C@H](C)[C@@H](CN(C)Cc2ccc(C(F)(F)F)cc2)Oc2ccc(NC(=O)CCN3CCOCC3)cc2CC1=O | inconclusive: 21.3%
C[C@H](CO)N1C[C@H](C)[C@H](CN(C)S(=O)(=O)c2cn(C)cn2)Oc2c(NC(=O)c3nc4ccccc4s3)cccc2C1=O | inactive: 11.7%
O=C(Oc1ccc(OC(=O)C2CCC2)cc1)C1CCC1 | inconclusive: 67.6%
CC(C)(C)OC(=O)C[C@H]1C/C=C\C[C@@H](CC(=O)N[C@@H](CO)Cc2ccccc2)C(=O)NC[C@H](c2ccccc2)OC1=O | active: 57.7%
C[C@H]1CN([C@@H](C)CO)C(=O)c2cccc(NC(=O)C3CC3)c2O[C@H]1CN(C)S(=O)(=O)c1cccs1 | inconclusive: 25.6%
COc1ccccc1NC(=O)N[C@H]1C=C[C@@H](CC(=O)NCc2ccc(Cl)c(Cl)c2)O[C@@H]1CO | inconclusive: 55.1%
COc1ccc2c3c(n(C)c2c1)[C@H](CO)N(S(C)(=O)=O)CC31CCN(C(=O)Nc2cccc(F)c2)CC1 | inconclusive: 59.4%
C[C@@H]1CN([C@H](C)CO)C(=O)c2cc(NS(=O)(=O)c3ccccc3)ccc2O[C@@H](C)CCCCO[C@H]1CN(C)S(=O)(=O)c1cccs1 | inconclusive: 38%
CCCNC(=O)c1ccc(N2CCC3(CC2)CC(c2cccc(Br)c2)=NO3)c(N)c1 | inconclusive: 56.1%
CC1(C(=O)NCc2ccccc2)CN(S(C)(=O)=O)CC(=O)N1Cc1ccc2c(c1)OCO2 (stereo not given) | inactive: 0.795%
c1ccc(SCc2nc(-c3ccncc3)n[nH]2)nc1 | inconclusive: 24.4%
O=C(NCc1ccccn1)[C@@H]1[C@@H](CO)[C@@H]2Cn3c(cccc3=O)[C@H]1N2CC1CCCC1 | inconclusive: 22%
CCOC(=O)c1cc(S(=O)(=O)NCc2ccc3c(c2)OCO3)cn1C | inconclusive: 42.4%
CC(C)CC#Cc1cnc2c(c1)C(=O)N([C@H](C)CO)C[C@H](C)[C@@H](CN(C)C(=O)CN1CCOCC1)O2 | inconclusive: 60.7%
Cc1oc2c(C)c3oc(=O)c(CCC(=O)NCCN4CCOCC4)c(C)c3cc2c1C | active: 29.2%
O=C(CN1c2cccc3cccc(c23)S1(=O)=O)N1CCCCC1 | inconclusive: 44%
COCC(=O)Nc1ccc2c(c1)[C@@H]1C[C@H](CC(=O)N(C)C)O[C@@H](CO)[C@@H]1O2 | active: 30.5%

SMILES | CPE inhibition
CC(C)C#Cc1ccc([C@@H]2[C@H](C#N)N(C(=O)C3CC3)[C@H]2CO)cc1 | inconclusive: 24%
C[C@@H]1CN([C@@H](C)CO)C(=O)c2cc(NC(=O)c3ccncc3)ccc2O[C@@H]1CN(C)S(=O)(=O)c1cn(C)cn1 | inconclusive: 30.8%
CN(C)CC(=O)N[C@@H]1C=C[C@@H](CC(=O)NCc2ccccc2F)O[C@H]1CO | inconclusive: 32.9%
CNC(=O)C[C@H]1CC[C@@H]2[C@H](COC[C@H](O)CN2Cc2ccc(C(F)(F)F)cc2)O1 | inactive: 2.36%
CCCNC(=O)C[C@@H]1CC[C@H]2[C@H](COc3ccc(NC(=O)Cc4ccccc4)cc3C(=O)N2C)O1 | inactive: 1.46%
CC(C(=O)Nc1ccc(Cl)cc1Cl)N1C(=O)NC2(CCCCCCC2)C1=O (stereo not given) | inconclusive: 23.1%
C/C=C/c1ccc([C@H]2[C@@H](CO)N(c3nc(CC)cs3)[C@H]2C#N)cc1 | inconclusive: 35.1%
CC(C)(C)OC(=O)COc1ccc(/C=N/NC(=O)CN2CCCCC2)cc1 | inactive: 6.13%
Cc1ccccc1CN1CCCC(C(=O)Nc2ccc(-c3ccn[nH]3)cc2)C1 (stereo not given) | inactive: 1.36%
COc1ccc(NC(=O)[C@H](C)NC(=O)C2CCN(S(=O)(=O)c3ccc(OC)cc3)CC2)cc1 | inconclusive: 21.7%
Cc1ccc(CN(C)c2nc(-c3cccnc3)nc3ccccc23)o1 | inconclusive: 30%
CCOc1cc(S(=O)(=O)NCCCN2CCOCC2)c(C)cc1C | inconclusive: 38.4%
COc1cccc2sc(N3CCN(C(=O)c4ccco4)CC3)nc12 | inconclusive: 49.9%
COCCNC(=S)N(CCN(C)C)Cc1cc2cc3c(cc2[nH]c1=O)OCO3 | inconclusive: 33.8%
CCS(=O)(=O)Nc1ccc2c(c1)C(=O)N(C)C[C@@H](OC)[C@H](C)CN(C(=O)NC(C)C)[C@@H](C)CO2 | inactive: -4.83%
CCC(C)Nc1ncnc2c1cnn2Cc1ccc(Cl)cc1 (stereo not given) | inconclusive: 53.8%
O=C1N[C@@H](c2ccccc2)COC(=O)[C@H](Cc2ccc(F)cc2)C/C=C\C[C@H]1CC(=O)N(CCO)Cc1ccccc1 | inconclusive: 29.4%
CCCC#Cc1cnc2c(c1)C(=O)N([C@H](C)CO)C[C@H](C)[C@H](CN(C)Cc1ccc(C(=O)O)cc1)O2 | inactive: -14.5%
CC(C)NC(=O)Nc1ccc2c(c1)C(=O)N([C@@H](C)CO)C[C@H](C)[C@@H](CN(C)C(=O)Nc1cccc3ccccc13)O2 | inconclusive: 25.9%
O=S1(=O)N[C@@H](Cc2ccccc2)COc2cc(N3CCOCC3)ccc21 | active: 53.9%
C[C@@H]1CN([C@@H](C)CO)C(=O)CCCn2nncc2CO[C@H]1CN(C)Cc1cccc2c1OCCCO2 | active: 45.4%
CC=Cc1ccc2n(c1=O)C[C@H]1[C@H](CO)[C@@H](C(=O)NCC3CC3)[C@@H]2N1C(=O)Nc1cc(F)ccc1F (mixture of isomers) | inconclusive: 43.8%
C[n+]1cccc(/C=N/Nc2nc(Cl)c(C#N)c(Cl)c2Cl)c1 | inconclusive: 28.3%
COc1ccc(CN(C)C[C@H]2OCCCC[C@@H](C)Oc3ccc(NC(=O)NC(C)C)cc3C(=O)N([C@H](C)CO)C[C@@H]2C)cc1 | inconclusive: 21.6%

SMILES | CPE inhibition
COCC(=O)N1CCCCN2[C@@H](CO)[C@@H](c3ccc(-c4ccc(C)cc4)cc3)[C@@H]2C1 | active: 65.7%
CCOc1ccc(CN2CCN(C3CCC3)CC2CCO)cc1 (stereo not given) | inconclusive: 28.1%
Cc1cccc(S(=O)(=O)N2CCCCN3[C@@H](CO)[C@@H](c4ccc(-c5cccnc5)cc4)[C@@H]3C2)c1 | active: 28.2%
CCS(=O)(=O)N1[C@@H](CO)[C@@H](c2ccccc2)C12CN(C(=O)C1CC1)C2 | inactive: -0.451%
O=C(Cc1ccc(S(=O)(=O)N2CCOCC2)s1)NCC(=O)Nc1ccccc1Br | active: 126%
Cc1noc(C)c1NC(=O)Nc1ccc2c(c1)C(=O)N([C@H](C)CO)C[C@H](C)[C@@H](CN(C)C(=O)Nc1cccc3ccccc13)O2 | inconclusive: 26.1%
COCC(=O)Nc1ccc2c(c1)C(=O)N(C)C[C@H](OC)[C@H](C)CN(CC1CC1)[C@@H](C)CO2 | inactive: -0.43%
CCOC(=O)C1CCN(C(=O)c2cc(CN3C(=O)c4ccccc4C3=O)ccc2OCC)CC1 | inconclusive: 46.9%
CCCN(C)C[C@@H]1OCCCC[C@@H](C)Oc2ccc(NC(=O)NC(C)C)cc2C(=O)N([C@@H](C)CO)C[C@@H]1C | inconclusive: 25.9%
Cc1ccc(S(=O)(=O)N(C)C[C@@H]2Oc3c(NC(=O)c4cnccn4)cccc3C(=O)N([C@H](C)CO)C[C@H]2C)cc1 | inconclusive: 25.3%
O=C(C[C@@H]1C=C[C@@H](NC(=O)Nc2cc(F)ccc2F)[C@H](CO)O1)Nc1ccccc1 | inactive: 3.94%
O=C(CN1C(=O)COc2ccccc21)NCCCN1CCN(c2ccccc2F)CC1 | inconclusive: 54.2%
COc1ccc(CN(C)C[C@H]2OCCCC[C@@H](C)Oc3ccc(NC(=O)Nc4ccc5c(c4)OCO5)cc3C(=O)N([C@H](C)CO)C[C@H]2C)cc1 | inactive: 10.2%
Cc1cc(NC(=O)CSc2nnc(Cc3cccn3C)n2CCc2ccccc2)no1 | inconclusive: 25.1%
CCOC(=O)N1CCC(NC(=O)CCc2c(C)nc3c(c(C)nn3-c3ccccc3)c2C)CC1 | inconclusive: 28.1%
COCCn1c(SCC(=O)NC2CCCC2)nc2ccccc2c1=O | inconclusive: 22.8%
CNC(=O)C[C@@H]1CC[C@@H]2[C@@H](COc3ccc(NC(=O)c4cc(F)cc(F)c4)cc3C(=O)N2C)O1 | inactive: -2.96%
CCCC#Cc1ccc2c(c1)O[C@H](CN(C)C(=O)c1cnccn1)[C@H](C)CN([C@H](C)CO)S2(=O)=O | inactive: -5.77%
C[C@H](CO)N1C[C@H](C)[C@H](CN(C)C(=O)c2cc(-c3ccccc3)on2)OCc2cnnn2CCCC1=O | inconclusive: 44.4%
CCCCC1=CC2=CC(=O)C(C)(OC(=O)CC)C(=O)C2=CO1 (stereo not given) | inconclusive: 84.5%
Cc1cc(NC(=O)CN(C)C)c([N+](=O)[O-])cc1C | inconclusive: 24%
Cc1ccc(C(=O)COC(=O)COc2ccccc2C)cc1 | inconclusive: 33.9%

Among those listed so far, two contain bromine.
SMILES | CPE inhibition
CCCNC(=O)c1ccc(N2CCC3(CC2)CC(c2cccc(Br)c2)=NO3)c(N)c1 | inconclusive: 56.1%
O=C(Cc1ccc(S(=O)(=O)N2CCOCC2)s1)NCC(=O)Nc1ccccc1Br | active: 126%
